Values from PubChem BioAssay AID686943 (Drosophila RNAi Screening Center, 2013)
The deposit covers about 23,000 reagents; this is an unselected part of those with a known target gene and a result. 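Extra replicates exist only for a retested subset of genes; insulin dose and duration not given; both raised and lowered dpERK matter.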 The numbers tell different reagents against one gene apart. Names joined by + are all predicted targets of the reagent. Not all columns of the deposit are shown. Reagent sequences are not shown. The record does not give: the amount of reagent, the time to read-out.

- Purpose: 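Knockdowns that increase or decrease active ERK after insulin receptor stimulation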 (primary screen)
- Cells: Drosophila S2R+ haemocyte-like cells expressing YFP-tagged ERK (Rolled)
- Reagent: long dsRNA against Drosophila genes
- Conditions: insulin stimulation versus unstimulated cells; dose and duration not given
- Measured: 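Antibody staining for doubly phosphorylated ERK divided by ERK-YFP signal, as plate z-scores, in insulin-treated and untreated cells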
- Scale: replicate 1, z-score of dpERK with insulin and replicate 2, z-score of dpERK with insulin: higher = more active ERK per ERK-YFP after insulin

With knock-down of lncRNA:CR43493 + l(1)G0196 the results were replicate 1, z-score of dpERK with insulin -0.1; replicate 2, z-score of dpERK with insulin -0.5.
With knock-down of Gyc88E (Guanylyl cyclase at 88E) the results were replicate 1, z-score of dpERK with insulin 0.78; replicate 2, z-score of dpERK with insulin -0.58.
After knock-down of Lztr1 (Leucine zipper like transcription regulator 1) #1 the results were replicate 1, z-score of dpERK with insulin 1.3; replicate 2, z-score of dpERK with insulin 0.
Depletion of Lztr1 (Leucine zipper like transcription regulator 1) #2 resulted in: replicate 1, z-score of dpERK with insulin 1.1; replicate 2, z-score of dpERK with insulin 0.
Silencing of pck (pickel) resulted in: replicate 1, z-score of dpERK with insulin -0.74; replicate 2, z-score of dpERK with insulin -0.53.
With knock-down of CG11586, the record shows replicate 1, z-score of dpERK with insulin -0.45; replicate 2, z-score of dpERK with insulin -0.02.
elg1 (enhanced level of genomic instability 1) scored replicate 1, z-score of dpERK with insulin 0.25; replicate 2, z-score of dpERK with insulin 0.13.
yuri (yuri gagarin) #1 gave replicate 1, z-score of dpERK with insulin -0.64; replicate 2, z-score of dpERK with insulin -1.02.
Knock-down of yuri (yuri gagarin) #2 gave: replicate 1, z-score of dpERK with insulin 0.22; replicate 2, z-score of dpERK with insulin -2.31.
Against yuri (yuri gagarin) #3, the values are replicate 1, z-score of dpERK with insulin 1; replicate 2, z-score of dpERK with insulin 1.04.
Knock-down of yuri (yuri gagarin) #4 gave: replicate 1, z-score of dpERK with insulin 0.1; replicate 2, z-score of dpERK with insulin -0.06.
Depletion of CG9135 resulted in: replicate 1, z-score of dpERK with insulin 0.47; replicate 2, z-score of dpERK with insulin -0.58.
Depletion of CG5478 resulted in: replicate 1, z-score of dpERK with insulin 0.14; replicate 2, z-score of dpERK with insulin 0.42.

Part of the list above, set out differently:
Gene | reagent | replicate 1, z-score of dpERK with insulin | replicate 2, z-score of dpERK with insulin
yuri (yuri gagarin) | 1 | -0.64 | -1.02
yuri (yuri gagarin) | 2 | 0.22 | -2.31
yuri (yuri gagarin) | 3 | 1 | 1.04
yuri (yuri gagarin) | 4 | 0.1 | -0.06
CG9135 | 1 | 0.47 | -0.58

Further results:
Against alpha-Man-IIa (alpha-Mannosidase class II a), the values are replicate 1, z-score of dpERK with insulin -0.18; replicate 2, z-score of dpERK with insulin 0.13.
CG8248 gave replicate 1, z-score of dpERK with insulin 0.19; replicate 2, z-score of dpERK with insulin 0.2.
nxf2 (nuclear RNA export factor 2) showed replicate 1, z-score of dpERK with insulin 0.06; replicate 2, z-score of dpERK with insulin 1.52.
Depletion of Grl36b (Gustatory receptor-like 36b) came out at: replicate 1, z-score of dpERK with insulin 0.19; replicate 2, z-score of dpERK with insulin -0.32.
With knock-down of CG13842 the results were replicate 1, z-score of dpERK with insulin -1.05; replicate 2, z-score of dpERK with insulin -0.91.
With knock-down of Cp15 (Chorion protein 15) the results were replicate 1, z-score of dpERK with insulin -0.08; replicate 2, z-score of dpERK with insulin -0.32.
With knock-down of CG11883 the results were replicate 1, z-score of dpERK with insulin 0.35; replicate 2, z-score of dpERK with insulin 0.33.
Knock-down of Fancl resulted in: replicate 1, z-score of dpERK with insulin -0.54; replicate 2, z-score of dpERK with insulin 0.77.
For CG6330 the deposit lists replicate 1, z-score of dpERK with insulin -0.79; replicate 2, z-score of dpERK with insulin -0.56.
CG32055 showed replicate 1, z-score of dpERK with insulin -0.03; replicate 2, z-score of dpERK with insulin 0.11.
Tpr2 (Tetratricopeptide repeat protein 2) gave replicate 1, z-score of dpERK with insulin -0.49; replicate 2, z-score of dpERK with insulin 1.04.
Against CG2964, the entry reads replicate 1, z-score of dpERK with insulin 0.55; replicate 2, z-score of dpERK with insulin 0.08.
Silencing of GstE3 (Glutathione S transferase E3) resulted in: replicate 1, z-score of dpERK with insulin -0.8; replicate 2, z-score of dpERK with insulin 0.56.
For Ntf-2 (Nuclear transport factor-2) the deposit lists replicate 1, z-score of dpERK with insulin 0.71; replicate 2, z-score of dpERK with insulin 1.72.
Silencing of CG15034 resulted in: replicate 1, z-score of dpERK with insulin 0.64; replicate 2, z-score of dpERK with insulin -0.13.
CG3690 #1 scored replicate 1, z-score of dpERK with insulin -0.06; replicate 2, z-score of dpERK with insulin 0.04.
After knock-down of CG3690 #2, the screen gave replicate 1, z-score of dpERK with insulin 0.49; replicate 2, z-score of dpERK with insulin -1.01.
After knock-down of C15 #1, the screen gave replicate 1, z-score of dpERK with insulin -0.58; replicate 2, z-score of dpERK with insulin -0.26.
C15 #2 gave replicate 1, z-score of dpERK with insulin -0.45; replicate 2, z-score of dpERK with insulin -0.01.
